Data as given in PubChem BioAssay AID1053208 (Peter MacCallum Cancer Centre, 2014).

Purpose: 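Find knock-downs that sensitise mouse osteosarcoma cells to doxorubicin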 (primary screen)
Cells: mouse osteosarcoma cells, early-passage culture from an engineered mouse model of fibroblastic bone tumour
Reagent: siRNA pool against mouse genes, 40 nM
Duration: about 120 h (48 h before drug, then 72 h with drug)
Conditions: doxorubicin 100 nM for 72 h, roughly 30-40% inhibitory dose
Detection: 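Luminescent ATP signal taken as viability with or without 100 nM doxorubicin for 72 h; mean of two wells set against non-targeting siRNA and turned into robust z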
Direction: viability z-score with doxorubicin and doxorubicin viability vs non-targeting: higher = more viable cells under doxorubicin; viability z-score without drug: higher = more viable cells with knock-down alone; z-score of drug to no-drug ratio: higher = less drug sensitisation by knock-down
Rule for the call: 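Called active if knock-down leaves viability unchanged without drug (z within -2 to 2) but lowers it with doxorubicin (z at or under -2)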
This is a random part of about 17,000 deposited reagents. In the full data, 788 (4.7%) are marked active. 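Calls rest on z-score classes alone; an extra cut-off of viability at most 70% of control was not applied to them.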 Unmarked entries are inactive. Reagent sequences are not shown.

The opening 4 entries, to show the layout:
| target gene | combined z-score class | viability z-score with doxorubicin | viability z-score without drug | z-score of drug to no-drug ratio | doxorubicin viability vs non-targeting |
| --- | --- | --- | --- | --- | --- |
| Dhx57 | no change with or without drug | 0.22 | -0.17 | 0.45 | 0.96 |
| Lsm11 | no change with or without drug | -1.57 | -0.17 | -1.46 | 0.8 |
| Asrgl1 | no change with or without drug | -0.67 | -0.17 | -0.45 | 0.88 |
| Rpl28 | no change with or without drug | -1.35 | 0.51 | -1.57 | 0.82 |

The list itself, repeating the preview:
| target gene | combined z-score class | viability z-score with doxorubicin | viability z-score without drug | z-score of drug to no-drug ratio | doxorubicin viability vs non-targeting |
| --- | --- | --- | --- | --- | --- |
| Dhx57 | no change with or without drug | 0.22 | -0.17 | 0.45 | 0.96 |
| Lsm11 | no change with or without drug | -1.57 | -0.17 | -1.46 | 0.8 |
| Asrgl1 | no change with or without drug | -0.67 | -0.17 | -0.45 | 0.88 |
| Rpl28 | no change with or without drug | -1.35 | 0.51 | -1.57 | 0.82 |
| Ttc22 | high cell count with doxorubicin only | 2.02 | 1.69 | 1.01 | 1.12 |
| Or9i2 | no change with or without drug | 0.56 | -0.51 | 1.12 | 0.99 |
| Ythdf2 | high cell count without drug only | 1.57 | 2.19 | 0.22 | 1.08 |
| Ip6k3 | no change with or without drug | -0.45 | -1.35 | 0.56 | 0.9 |
| Araf | no change with or without drug | 0.9 | -0.51 | 1.46 | 1.02 |
| Zfp747 | no change with or without drug | 0.22 | 0.84 | -0.22 | 0.96 |
| AU021107 | no change with or without drug | -0.9 | -0.51 | -0.56 | 0.86 |
| Khdc1a | no change with or without drug | 0.22 | 0.51 | 0 | 0.96 |
| Sorcs2 | no change with or without drug | 0.9 | 0.17 | 0.9 | 1.02 |
| Ppp1r9a | no change with or without drug | 0.9 | 0.51 | 0.67 | 1.02 |
| Derl1 | no change with or without drug | -0.22 | 0.34 | -0.34 | 0.92 |
| Slc35d2 | no change with or without drug | 0.45 | 0.17 | 0.45 | 0.98 |
| Cnot3 | no change with or without drug | -1.01 | -1.85 | 0.34 | 0.85 |
| Prl3d1 | no change with or without drug | -0.67 | -0.17 | -0.45 | 0.88 |
| Alx1 | no change with or without drug | 0.45 | 1.01 | -0.11 | 0.98 |
| Hspa1a | no change with or without drug | -0.22 | 0.51 | -0.45 | 0.92 |
| Unc5d | low cell count with and without drug | -3.71 | -2.19 | -2.7 | 0.61 |
| Fam124b | no change with or without drug | -0.11 | 1.18 | -0.79 | 0.93 |
| Vmn1r210 | no change with or without drug | 1.01 | 1.85 | -0.11 | 1.03 |
| Tmem239 | high cell count without drug only | -1.12 | 2.02 | -2.14 | 0.84 |
| Or51ag1 | no change with or without drug | -0.79 | -1.69 | 0.45 | 0.87 |
| Aanat | no change with or without drug | 0.45 | 0.84 | 0 | 0.98 |
| Spmip8 | no change with or without drug | -1.01 | 0.84 | -1.46 | 0.85 |
| Rft1 | no change with or without drug | 0.22 | 0.17 | 0.22 | 0.96 |
| Bhlhb9 | no change with or without drug | 0.45 | 0.17 | 0.45 | 0.98 |
| Taar8a | no change with or without drug | -0.56 | 1.18 | -1.24 | 0.89 |
| Lax1 | no change with or without drug | 0 | 1.52 | -0.9 | 0.94 |
| Ccnb3 | no change with or without drug | 0.9 | 0.17 | 0.9 | 1.02 |
| Uts2 | no change with or without drug | 0.45 | 0.17 | 0.45 | 0.98 |
| Esrrg | no change with or without drug | -1.91 | -0.84 | -1.35 | 0.77 |
| Id4 | no change with or without drug | -1.35 | -1.35 | -0.45 | 0.82 |
| Mrpl9 | low cell count without drug only | -1.35 | -2.53 | 0.45 | 0.82 |
| Ccndbp1 | no change with or without drug | -0.22 | -1.18 | 0.79 | 0.92 |
| Gstp1 | no change with or without drug | 1.12 | 0.17 | 1.12 | 1.04 |
| BC028528 | no change with or without drug | -1.46 | 0.17 | -1.57 | 0.81 |
| Gjb1 | high cell count with doxorubicin only | 2.47 | 0 | 2.7 | 1.16 |
| Ckap2l | no change with or without drug | 0.34 | -0.51 | 0.79 | 0.97 |
| Ect2 | no change with or without drug | -0.22 | -1.52 | 1.01 | 0.92 |
| Trmt1 | no change with or without drug | -0.45 | 0.51 | -0.67 | 0.9 |
| Serpinc1 | no change with or without drug | 0.22 | 0.51 | 0 | 0.96 |
| A730049H05Rik | no change with or without drug | -0.22 | 0.67 | -0.56 | 0.92 |
| Ccnl1 | no change with or without drug | -0.45 | -0.67 | 0.11 | 0.9 |
| Vmn1r235 | no change with or without drug | -0.45 | -0.84 | 0.22 | 0.9 |
| Capstert | no change with or without drug | -0.22 | 1.85 | -1.24 | 0.92 |
| Or1j10 | low cell count with doxorubicin only (active) | -2.02 | 0.17 | -2.14 | 0.76 |
| Arl2bp | no change with or without drug | 1.8 | 0.34 | 1.69 | 1.1 |
